Laboratory results: publication PMC9249922
These are yes or no findings as the source states them, for the method shown. In cells and extracts the contact can be indirect. Some results given as binding are weak or reduced against the parent protein; the word gives no strength.

By UniProt entry, the sequences of proteins in these tests, tags left out. Where a name states a change or a piece, a line headed by the entry shows the natural chain unless it says otherwise. Chains listed by the source or under a name are the forms on record and can include a tag or linker. Residues count along the entry.
UniProt P08581, residues 25-1390: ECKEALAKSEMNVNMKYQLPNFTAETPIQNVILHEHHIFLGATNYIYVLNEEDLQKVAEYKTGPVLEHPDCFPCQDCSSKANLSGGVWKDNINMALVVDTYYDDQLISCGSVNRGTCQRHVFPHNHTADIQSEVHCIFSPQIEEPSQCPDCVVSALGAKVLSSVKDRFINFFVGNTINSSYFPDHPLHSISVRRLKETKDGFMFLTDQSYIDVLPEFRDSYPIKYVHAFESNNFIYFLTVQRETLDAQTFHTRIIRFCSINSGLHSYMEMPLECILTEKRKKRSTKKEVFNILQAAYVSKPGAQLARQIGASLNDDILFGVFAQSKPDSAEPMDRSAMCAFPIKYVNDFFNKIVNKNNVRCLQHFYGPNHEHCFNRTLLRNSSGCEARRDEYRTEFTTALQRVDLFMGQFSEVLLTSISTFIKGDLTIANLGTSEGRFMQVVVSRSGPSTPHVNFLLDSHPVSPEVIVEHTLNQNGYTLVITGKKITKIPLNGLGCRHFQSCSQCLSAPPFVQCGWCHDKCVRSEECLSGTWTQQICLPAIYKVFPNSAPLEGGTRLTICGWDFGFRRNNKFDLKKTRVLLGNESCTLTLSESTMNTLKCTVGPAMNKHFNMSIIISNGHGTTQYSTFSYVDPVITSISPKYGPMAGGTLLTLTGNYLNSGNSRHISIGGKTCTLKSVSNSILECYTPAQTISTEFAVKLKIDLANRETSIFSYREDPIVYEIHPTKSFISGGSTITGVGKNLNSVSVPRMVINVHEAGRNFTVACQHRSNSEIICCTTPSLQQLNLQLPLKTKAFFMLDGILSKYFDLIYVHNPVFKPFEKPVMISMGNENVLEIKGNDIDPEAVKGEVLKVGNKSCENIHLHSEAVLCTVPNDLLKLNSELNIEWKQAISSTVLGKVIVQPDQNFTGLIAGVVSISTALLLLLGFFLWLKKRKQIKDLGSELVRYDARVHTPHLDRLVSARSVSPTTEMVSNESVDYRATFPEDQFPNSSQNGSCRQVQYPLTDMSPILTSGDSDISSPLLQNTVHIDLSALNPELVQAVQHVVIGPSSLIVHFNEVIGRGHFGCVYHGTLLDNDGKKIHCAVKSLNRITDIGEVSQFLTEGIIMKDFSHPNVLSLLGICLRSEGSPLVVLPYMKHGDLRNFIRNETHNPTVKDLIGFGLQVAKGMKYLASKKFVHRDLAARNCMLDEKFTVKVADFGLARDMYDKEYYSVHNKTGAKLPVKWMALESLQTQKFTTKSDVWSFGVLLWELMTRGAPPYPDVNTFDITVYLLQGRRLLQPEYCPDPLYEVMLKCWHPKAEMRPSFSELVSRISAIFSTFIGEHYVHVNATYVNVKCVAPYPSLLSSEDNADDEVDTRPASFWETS
Flag-HGF 4Cys-4Ala (in vitro translated) (P14210-1, form named): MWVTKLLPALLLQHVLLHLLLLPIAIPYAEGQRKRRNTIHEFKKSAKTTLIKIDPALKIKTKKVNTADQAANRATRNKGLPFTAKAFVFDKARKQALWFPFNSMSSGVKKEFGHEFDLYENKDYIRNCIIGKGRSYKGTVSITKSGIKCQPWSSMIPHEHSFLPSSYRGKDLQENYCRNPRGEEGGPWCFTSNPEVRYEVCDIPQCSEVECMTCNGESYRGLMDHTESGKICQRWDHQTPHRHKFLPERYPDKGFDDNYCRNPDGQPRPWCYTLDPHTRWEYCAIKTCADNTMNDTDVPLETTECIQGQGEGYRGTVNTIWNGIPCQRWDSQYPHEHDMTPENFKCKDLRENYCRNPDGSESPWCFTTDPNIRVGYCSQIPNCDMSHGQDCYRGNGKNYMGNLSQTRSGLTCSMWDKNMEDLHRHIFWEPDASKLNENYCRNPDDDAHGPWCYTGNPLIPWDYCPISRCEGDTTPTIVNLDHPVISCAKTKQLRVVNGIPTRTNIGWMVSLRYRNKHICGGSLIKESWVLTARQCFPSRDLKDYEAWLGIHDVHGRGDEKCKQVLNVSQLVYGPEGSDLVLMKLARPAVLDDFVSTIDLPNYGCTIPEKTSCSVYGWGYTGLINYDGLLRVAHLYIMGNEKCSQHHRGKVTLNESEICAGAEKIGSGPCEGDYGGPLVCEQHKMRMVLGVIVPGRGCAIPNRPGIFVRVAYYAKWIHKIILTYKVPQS

Target: endogenous c-MET (293T cells) (human (endogenous in 293T)) (UniProt P08581)
Test: pull-down; endogenous c-MET immunoprecipitated from 293T cells on anti-MET antibody-bound Dynabeads Protein G; in vitro translated Flag-HGF incubated with the bead-bound c-MET for 4 h at 4 °C; western blot; only the target purified

Row | Substance | binding
1 | Flag-HGF 4Cys-4Ala (in vitro translated) (from UniProt P14210-1 1-728) (ligand) | no binding
2 | Flag-HGF WT (in vitro translated) (from UniProt P14210-1 1-728) (ligand) | binds
